Results are given in words; binding and its absence hold for the method and conditions named. Binding can be weak; no strength is given. Where a sequence is shown, tags or fusion partners need not be part of it. For some of these results: Binding seen in cells or lysates may run through a third protein.
B1: PAD4-His (protein, UniProt Q9S745 1-541)
chain: MDDCRFETSELQASVMISTPLFTDSWSSCNTANCNGSIKIHDIAGITYVAIPAVSMIQLGNLVGLPVTGDVLFPGLSSDEPLPMVDAAILKLFLQLKIKEGLELELLGKKLVVITGHSTGGALAAFTALWLLSQSSPPSFRVFCITFGSPLLGNQSLSTSISRSRLAHNFCHVVSIHDLVPRSSNEQFWPFGTYLFCSDKGGVCLDNAGSVRLMFNILNTTATQNTEEHQRYGHYVFTLSHMFLKSRSFLGGSIPDNSYQAGVALAVEALGFSNDDTSGVLVKECIETATRIVRAPILRSAELANELASVLPARLEIQWYKDRCDASEEQLGYYDFFKRYSLKRDFKVNMSRIRLAKFWDTVIKMVETNELPFDFHLGKKWIYASQFYQLLAEPLDIANFYKNRDIKTGGHYLEGNRPKRYEVIDKWQKGVKVPEECVRSRYASTTQDTCFWAKLEQAKEWLDEARKESSDPQRRSLLREKIVPFESYANTLVTKKEVSLDVKAKNSSYSVWEANLKEFKCKMGYENEIEMVVDESDAMET
B2: PAD4-HA (Phytoalexin Deficient 4) (protein, UniProt Q9S745 1-541)
chain: MDDCRFETSELQASVMISTPLFTDSWSSCNTANCNGSIKIHDIAGITYVAIPAVSMIQLGNLVGLPVTGDVLFPGLSSDEPLPMVDAAILKLFLQLKIKEGLELELLGKKLVVITGHSTGGALAAFTALWLLSQSSPPSFRVFCITFGSPLLGNQSLSTSISRSRLAHNFCHVVSIHDLVPRSSNEQFWPFGTYLFCSDKGGVCLDNAGSVRLMFNILNTTATQNTEEHQRYGHYVFTLSHMFLKSRSFLGGSIPDNSYQAGVALAVEALGFSNDDTSGVLVKECIETATRIVRAPILRSAELANELASVLPARLEIQWYKDRCDASEEQLGYYDFFKRYSLKRDFKVNMSRIRLAKFWDTVIKMVETNELPFDFHLGKKWIYASQFYQLLAEPLDIANFYKNRDIKTGGHYLEGNRPKRYEVIDKWQKGVKVPEECVRSRYASTTQDTCFWAKLEQAKEWLDEARKESSDPQRRSLLREKIVPFESYANTLVTKKEVSLDVKAKNSSYSVWEANLKEFKCKMGYENEIEMVVDESDAMET
B3: EDS1 (Enhanced Disease Susceptibility 1), yeast two-hybrid fusion (protein, UniProt Q9XF23 1-623)
chain: MAFEALTGINGDLITRSWSASKQAYLTERYHKEEAGAVVIFAFQPSFSEKDFFDPDNKSSFGEIKLNRVQFPCMRKIGKGDVATVNEAFLKNLEAVIDPRTSFQASVEMAVRSRKQIVFTGHSSGGATAILATVWYLEKYFIRNPNVYLEPRCVTFGAPLVGDSIFSHALGREKWSRFFVNFVTRFDIVPRITLARKASVEETLPHVLAQLDPRNSSVQESEQRITEFYTSVMRDTSTVANQAVCELTGSAEAILETLSSFLELSPYRPAGTFVFSTEKRLVAVNNSDAILQMLFYTCQASDEQEWSLIPFRSIRDHHSYEELVQSMGMKLFNHLDGENSIESSLNDLGVSTRGRQYVQAALEEEKKRVENQKKIIQVIQQERFLKKLAWIEDEYKPKCQAHKNGYYDSFKVSNEENDFKANVKRAELAGVFDEVLGLLKKCQLPDEFEGDIDWIKLATRYRRLVEPLDIANYHRHLKNEDTGPYMKRGRPTRYIYAQRGYEHHILKPNGMIAEDVFWNKVNGLNLGLQLEEIQETLKNSGSECGSCFWAEVEELKGKPYEEVEVRVKTLEGMLREWITAGEVDEKEIFLEGSTFRKWWITLPKNHKSHSPLRDYMMDEITDT
B4: EDS1-HA (protein, UniProt Q9XF23 1-623)
chain: MAFEALTGINGDLITRSWSASKQAYLTERYHKEEAGAVVIFAFQPSFSEKDFFDPDNKSSFGEIKLNRVQFPCMRKIGKGDVATVNEAFLKNLEAVIDPRTSFQASVEMAVRSRKQIVFTGHSSGGATAILATVWYLEKYFIRNPNVYLEPRCVTFGAPLVGDSIFSHALGREKWSRFFVNFVTRFDIVPRITLARKASVEETLPHVLAQLDPRNSSVQESEQRITEFYTSVMRDTSTVANQAVCELTGSAEAILETLSSFLELSPYRPAGTFVFSTEKRLVAVNNSDAILQMLFYTCQASDEQEWSLIPFRSIRDHHSYEELVQSMGMKLFNHLDGENSIESSLNDLGVSTRGRQYVQAALEEEKKRVENQKKIIQVIQQERFLKKLAWIEDEYKPKCQAHKNGYYDSFKVSNEENDFKANVKRAELAGVFDEVLGLLKKCQLPDEFEGDIDWIKLATRYRRLVEPLDIANYHRHLKNEDTGPYMKRGRPTRYIYAQRGYEHHILKPNGMIAEDVFWNKVNGLNLGLQLEEIQETLKNSGSECGSCFWAEVEELKGKPYEEVEVRVKTLEGMLREWITAGEVDEKEIFLEGSTFRKWWITLPKNHKSHSPLRDYMMDEITDT
B5: BAK1-HA (protein, UniProt Q94F62 26-615)
chain: NAEGDALSALKNSLADPNKVLQSWDATLVTPCTWFHVTCNSDNSVTRVDLGNANLSGQLVMQLGQLPNLQYLELYSNNITGTIPEQLGNLTELVSLDLYLNNLSGPIPSTLGRLKKLRFLRLNNNSLSGEIPRSLTAVLTLQVLDLSNNPLTGDIPVNGSFSLFTPISFANTKLTPLPASPPPPISPTPPSPAGSNRITGAIAGGVAAGAALLFAVPAIALAWWRRKKPQDHFFDVPAEEDPEVHLGQLKRFSLRELQVASDNFSNKNILGRGGFGKVYKGRLADGTLVAVKRLKEERTQGGELQFQTEVEMISMAVHRNLLRLRGFCMTPTERLLVYPYMANGSVASCLRERPESQPPLDWPKRQRIALGSARGLAYLHDHCDPKIIHRDVKAANILLDEEFEAVVGDFGLAKLMDYKDTHVTTAVRGTIGHIAPEYLSTGKSSEKTDVFGYGVMLLELITGQRAFDLARLANDDDVMLLDWVKGLLKEKKLEALVDVDLQGNYKDEEVEQLIQVALLCTQSSPMERPKMSEVVRMLEGDGLAERWEEWQKEEMFRQDFNYPTHHPAVSGWIIGDSTSQIENEYPSGPR
B6: BAK1 (BRI1-associated kinase 1), yeast two-hybrid fusion (protein, UniProt Q94F62 1-615)
chain: MERRLMIPCFFWLILVLDLVLRVSGNAEGDALSALKNSLADPNKVLQSWDATLVTPCTWFHVTCNSDNSVTRVDLGNANLSGQLVMQLGQLPNLQYLELYSNNITGTIPEQLGNLTELVSLDLYLNNLSGPIPSTLGRLKKLRFLRLNNNSLSGEIPRSLTAVLTLQVLDLSNNPLTGDIPVNGSFSLFTPISFANTKLTPLPASPPPPISPTPPSPAGSNRITGAIAGGVAAGAALLFAVPAIALAWWRRKKPQDHFFDVPAEEDPEVHLGQLKRFSLRELQVASDNFSNKNILGRGGFGKVYKGRLADGTLVAVKRLKEERTQGGELQFQTEVEMISMAVHRNLLRLRGFCMTPTERLLVYPYMANGSVASCLRERPESQPPLDWPKRQRIALGSARGLAYLHDHCDPKIIHRDVKAANILLDEEFEAVVGDFGLAKLMDYKDTHVTTAVRGTIGHIAPEYLSTGKSSEKTDVFGYGVMLLELITGQRAFDLARLANDDDVMLLDWVKGLLKEKKLEALVDVDLQGNYKDEEVEQLIQVALLCTQSSPMERPKMSEVVRMLEGDGLAERWEEWQKEEMFRQDFNYPTHHPAVSGWIIGDSTSQIENEYPSGPR

Tests used:
[1] = target: GST-EDS1 (Arabidopsis thaliana) (UniProt Q9XF23); experiment: pull-down; both purified
[2] = target: PcAvh103-FLAG (Phytophthora capsici); experiment: co-IP; PcAvh103-FLAG co-expressed with HA-tagged proteins in Arabidopsis mesophyll protoplasts; anti-FLAG agarose 4 hr, 50 mM HEPES pH 7.5, 150 mM KCl, 1 mM EDTA, Triton X-100, 1 mM DTT; eluted with 3xFLAG peptide; anti-FLAG and anti-HA immunoblots
[3] = target: EDS1-FLAG (Arabidopsis thaliana) (UniProt Q9SU72); experiment: co-IP; EDS1-FLAG co-expressed with EDS1-HA, PAD4-HA or SAG101-HA in Arabidopsis protoplasts in the presence or absence of PcAvh103-HIS; anti-FLAG IP, immunoblot
[4] = target: PcAvh103 (Phytophthora capsici Avirulence Homolog RxLR effector), yeast two-hybrid fusion (Phytophthora capsici LT263); experiment: two-hybrid; Matchmaker Gold system, yeast AH109; PcAvh103 in pGBKT7 (bait), EDS1, BAK1 or BIK1 in pGADT7 (prey); growth on QDO (SD/-Leu/-Trp/-His/-Ade)

Row | Binder | binding [2] | binding [4] | other results
1 | B1 |  |  | binding [1]: binds
2 | B2 | no binding |  | binding [3]: binds
3 | B3 |  | binds | 
4 | B4 | binds |  | 
5 | B5 | no binding |  | 
6 | B6 |  | binds | 

Reference: article PMC7060136
